These are yes or no findings as the source states them, for the method shown. Binding seen in cells or lysates may run through a third protein. Binding can be weak; no strength is given. For part of these data: Tags and fused reporters may be left off the sequences shown.
Assays:
Assay in all cases: pull-down; GST-effector fusion protein on glutathione-Sepharose beads incubated with clarified lysate of transfected cells for 1 h at 4 °C; lysis buffer 20 mM Hepes pH 7.4, 100 mM NaCl, 5 mM MgCl2, 0.1% NP40, 10% glycerol, 1 mM DTT; washed 3 times with PBS-T (1% Triton X-100); immunoblot with anti-Myc or anti-Rab antibody, bands quantified with LI-COR Odyssey; only the target purified
[1] = target: T1, GST fusion protein of Rabenosyn-5 RBD-C (aa728-784) (UniProt Q9H1K0)
T1 sequence: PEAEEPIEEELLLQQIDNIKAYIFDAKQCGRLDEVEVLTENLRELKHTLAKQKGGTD

Protein sequences, listed by entry. Tags and fused reporters are not part of them. Lines headed by an entry give the natural chain unless they say otherwise; changes in a name come on top. Residues count along the entry.
UniProt Q15075, residues 1-209: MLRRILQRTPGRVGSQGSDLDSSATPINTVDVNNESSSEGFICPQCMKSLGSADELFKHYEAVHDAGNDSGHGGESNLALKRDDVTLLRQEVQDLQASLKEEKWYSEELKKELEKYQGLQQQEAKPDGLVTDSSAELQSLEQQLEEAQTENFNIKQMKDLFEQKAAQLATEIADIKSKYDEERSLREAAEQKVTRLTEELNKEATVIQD
UniProt Q9UL26: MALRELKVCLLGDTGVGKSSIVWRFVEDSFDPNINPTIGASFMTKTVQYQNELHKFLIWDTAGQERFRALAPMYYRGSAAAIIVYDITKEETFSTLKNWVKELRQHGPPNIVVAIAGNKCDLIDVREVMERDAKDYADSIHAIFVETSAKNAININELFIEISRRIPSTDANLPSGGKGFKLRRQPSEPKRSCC
UniProt Q13636: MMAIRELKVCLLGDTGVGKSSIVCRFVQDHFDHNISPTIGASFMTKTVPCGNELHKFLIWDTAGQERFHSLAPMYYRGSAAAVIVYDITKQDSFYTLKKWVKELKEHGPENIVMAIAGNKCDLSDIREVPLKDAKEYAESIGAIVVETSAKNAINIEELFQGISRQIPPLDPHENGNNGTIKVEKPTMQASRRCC

[2] = target: T2, GST fusion protein of Rabenosyn-5 RBD-N (aa1-40) (UniProt Q9H1K0)
T2 sequence: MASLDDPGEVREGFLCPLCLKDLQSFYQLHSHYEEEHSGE

[3] = target: GST fusion protein of EEA1 RBD-N (aa1-209) (UniProt Q15075)

binding [1] | binding [2] | binding [3] | Substance
binds | binds | binds | Rab22 (from UniProt Q9UL26)
binds | binds | binds | Rab31 (from UniProt Q13636)
